Data from the supplement of paper PMC6411743.
± gives the standard deviation of the averaged measurements. The entries are a selection whose mix differs from that of the whole data set.

Chains of the proteins cited; added tags and fusions are not shown. Lines headed by an entry give the natural chain unless they say otherwise; changes in a name come on top.
UniProt P11831: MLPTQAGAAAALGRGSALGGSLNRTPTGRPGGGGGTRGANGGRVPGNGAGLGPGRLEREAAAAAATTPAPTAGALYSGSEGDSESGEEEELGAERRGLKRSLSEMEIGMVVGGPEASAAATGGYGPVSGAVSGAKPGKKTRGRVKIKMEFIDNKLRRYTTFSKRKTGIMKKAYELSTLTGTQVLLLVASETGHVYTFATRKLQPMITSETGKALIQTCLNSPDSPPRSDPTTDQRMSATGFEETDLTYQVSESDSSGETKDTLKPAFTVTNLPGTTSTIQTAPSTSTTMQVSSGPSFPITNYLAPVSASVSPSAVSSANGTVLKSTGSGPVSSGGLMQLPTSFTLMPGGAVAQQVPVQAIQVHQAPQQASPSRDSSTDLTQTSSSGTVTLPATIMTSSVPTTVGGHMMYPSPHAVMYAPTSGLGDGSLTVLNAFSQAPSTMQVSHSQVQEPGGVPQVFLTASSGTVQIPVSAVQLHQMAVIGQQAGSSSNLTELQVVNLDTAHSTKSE
UniProt O96008: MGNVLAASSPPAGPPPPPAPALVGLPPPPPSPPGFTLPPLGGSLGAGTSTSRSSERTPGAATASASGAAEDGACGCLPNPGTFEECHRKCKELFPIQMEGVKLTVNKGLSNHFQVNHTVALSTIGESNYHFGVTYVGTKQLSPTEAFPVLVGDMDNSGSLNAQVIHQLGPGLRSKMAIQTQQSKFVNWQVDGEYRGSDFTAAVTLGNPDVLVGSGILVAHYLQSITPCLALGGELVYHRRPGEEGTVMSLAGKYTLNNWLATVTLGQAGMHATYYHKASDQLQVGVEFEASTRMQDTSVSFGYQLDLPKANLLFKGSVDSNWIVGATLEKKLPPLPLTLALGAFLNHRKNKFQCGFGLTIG
UniProt P05387, whole entry: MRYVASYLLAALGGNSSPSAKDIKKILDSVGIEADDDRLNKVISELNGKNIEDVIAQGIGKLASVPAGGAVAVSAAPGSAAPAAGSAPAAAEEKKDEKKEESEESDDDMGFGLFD
UniProt P16083: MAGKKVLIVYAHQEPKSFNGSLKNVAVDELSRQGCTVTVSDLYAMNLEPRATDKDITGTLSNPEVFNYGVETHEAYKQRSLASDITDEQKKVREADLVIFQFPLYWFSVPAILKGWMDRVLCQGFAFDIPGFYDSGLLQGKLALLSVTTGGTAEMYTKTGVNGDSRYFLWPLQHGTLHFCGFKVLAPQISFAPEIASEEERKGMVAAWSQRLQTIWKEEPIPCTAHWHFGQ
UniProt P07311: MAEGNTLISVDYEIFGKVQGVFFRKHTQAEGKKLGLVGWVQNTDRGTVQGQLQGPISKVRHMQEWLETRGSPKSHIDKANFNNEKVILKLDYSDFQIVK
UniProt P01137, whole entry: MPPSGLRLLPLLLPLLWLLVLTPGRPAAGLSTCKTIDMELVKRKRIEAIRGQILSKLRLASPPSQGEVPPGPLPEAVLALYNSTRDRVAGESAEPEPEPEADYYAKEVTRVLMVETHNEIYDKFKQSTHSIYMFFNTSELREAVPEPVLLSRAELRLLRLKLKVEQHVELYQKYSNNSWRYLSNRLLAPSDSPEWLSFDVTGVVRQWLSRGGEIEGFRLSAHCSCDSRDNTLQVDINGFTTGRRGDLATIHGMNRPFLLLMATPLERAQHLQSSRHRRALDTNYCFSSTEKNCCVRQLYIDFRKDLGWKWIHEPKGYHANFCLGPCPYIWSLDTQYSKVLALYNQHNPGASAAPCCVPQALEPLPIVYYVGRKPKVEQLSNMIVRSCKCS
UniProt P13984, whole entry: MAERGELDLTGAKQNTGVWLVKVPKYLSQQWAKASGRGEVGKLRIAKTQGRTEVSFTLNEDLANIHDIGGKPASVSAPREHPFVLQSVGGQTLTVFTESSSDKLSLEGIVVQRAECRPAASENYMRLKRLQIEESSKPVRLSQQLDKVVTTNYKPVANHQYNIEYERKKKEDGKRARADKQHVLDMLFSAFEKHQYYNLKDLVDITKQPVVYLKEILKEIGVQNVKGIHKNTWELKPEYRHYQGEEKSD
UniProt P35520: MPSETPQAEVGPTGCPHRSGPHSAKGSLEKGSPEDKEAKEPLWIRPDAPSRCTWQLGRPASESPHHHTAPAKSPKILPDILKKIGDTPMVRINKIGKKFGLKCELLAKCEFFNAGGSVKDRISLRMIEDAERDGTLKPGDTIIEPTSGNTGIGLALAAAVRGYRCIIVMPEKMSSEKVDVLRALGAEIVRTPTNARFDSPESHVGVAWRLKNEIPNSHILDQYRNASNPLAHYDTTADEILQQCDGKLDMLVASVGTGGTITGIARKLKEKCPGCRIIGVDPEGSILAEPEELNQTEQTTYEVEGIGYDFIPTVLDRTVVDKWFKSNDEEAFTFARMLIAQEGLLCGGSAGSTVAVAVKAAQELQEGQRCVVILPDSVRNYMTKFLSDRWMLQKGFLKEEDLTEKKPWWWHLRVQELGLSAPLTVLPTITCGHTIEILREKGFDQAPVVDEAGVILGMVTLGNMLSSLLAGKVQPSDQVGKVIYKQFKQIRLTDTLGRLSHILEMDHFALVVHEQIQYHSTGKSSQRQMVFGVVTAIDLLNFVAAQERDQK
UniProt P13796: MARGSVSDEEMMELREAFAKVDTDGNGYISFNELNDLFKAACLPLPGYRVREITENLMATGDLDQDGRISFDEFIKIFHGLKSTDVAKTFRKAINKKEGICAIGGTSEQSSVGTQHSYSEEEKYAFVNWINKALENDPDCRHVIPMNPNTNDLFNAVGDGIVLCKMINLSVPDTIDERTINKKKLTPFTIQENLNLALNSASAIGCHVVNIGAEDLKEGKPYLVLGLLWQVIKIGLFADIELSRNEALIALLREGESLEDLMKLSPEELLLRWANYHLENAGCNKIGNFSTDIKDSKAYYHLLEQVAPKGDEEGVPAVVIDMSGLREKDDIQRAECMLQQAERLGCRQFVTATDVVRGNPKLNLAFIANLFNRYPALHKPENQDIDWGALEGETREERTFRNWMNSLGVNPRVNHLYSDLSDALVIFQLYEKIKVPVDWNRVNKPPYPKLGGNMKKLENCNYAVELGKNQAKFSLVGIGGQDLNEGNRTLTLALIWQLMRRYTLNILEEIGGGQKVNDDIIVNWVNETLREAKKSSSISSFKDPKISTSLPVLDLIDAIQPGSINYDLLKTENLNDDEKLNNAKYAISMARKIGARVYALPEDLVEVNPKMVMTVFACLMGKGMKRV
UniProt P09564: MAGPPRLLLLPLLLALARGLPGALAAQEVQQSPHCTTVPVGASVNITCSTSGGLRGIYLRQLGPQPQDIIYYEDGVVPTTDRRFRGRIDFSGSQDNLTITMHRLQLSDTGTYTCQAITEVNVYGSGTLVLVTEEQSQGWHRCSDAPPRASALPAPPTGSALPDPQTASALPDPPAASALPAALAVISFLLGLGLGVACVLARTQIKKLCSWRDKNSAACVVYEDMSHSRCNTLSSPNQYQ
UniProt P04040: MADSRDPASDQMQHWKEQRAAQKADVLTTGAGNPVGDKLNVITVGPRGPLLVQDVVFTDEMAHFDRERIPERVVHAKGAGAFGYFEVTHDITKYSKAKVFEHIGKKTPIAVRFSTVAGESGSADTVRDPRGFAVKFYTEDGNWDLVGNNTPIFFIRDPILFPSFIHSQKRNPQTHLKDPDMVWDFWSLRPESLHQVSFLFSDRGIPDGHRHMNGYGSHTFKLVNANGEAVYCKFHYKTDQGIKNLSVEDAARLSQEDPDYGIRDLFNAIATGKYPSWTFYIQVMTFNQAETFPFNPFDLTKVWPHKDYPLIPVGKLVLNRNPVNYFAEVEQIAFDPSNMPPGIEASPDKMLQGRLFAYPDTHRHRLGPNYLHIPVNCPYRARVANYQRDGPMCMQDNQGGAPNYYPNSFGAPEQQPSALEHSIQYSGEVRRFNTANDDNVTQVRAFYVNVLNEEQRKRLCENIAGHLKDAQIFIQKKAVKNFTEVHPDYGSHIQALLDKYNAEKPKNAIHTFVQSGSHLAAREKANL
UniProt P06748, whole entry: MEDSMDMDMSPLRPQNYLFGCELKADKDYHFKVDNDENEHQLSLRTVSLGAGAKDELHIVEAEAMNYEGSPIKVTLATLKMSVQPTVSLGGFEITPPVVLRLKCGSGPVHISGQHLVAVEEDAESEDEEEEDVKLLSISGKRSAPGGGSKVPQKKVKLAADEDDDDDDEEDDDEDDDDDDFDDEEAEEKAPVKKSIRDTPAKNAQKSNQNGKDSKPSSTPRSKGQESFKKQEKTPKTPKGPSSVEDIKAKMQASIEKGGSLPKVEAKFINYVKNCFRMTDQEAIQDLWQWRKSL
UniProt P14868: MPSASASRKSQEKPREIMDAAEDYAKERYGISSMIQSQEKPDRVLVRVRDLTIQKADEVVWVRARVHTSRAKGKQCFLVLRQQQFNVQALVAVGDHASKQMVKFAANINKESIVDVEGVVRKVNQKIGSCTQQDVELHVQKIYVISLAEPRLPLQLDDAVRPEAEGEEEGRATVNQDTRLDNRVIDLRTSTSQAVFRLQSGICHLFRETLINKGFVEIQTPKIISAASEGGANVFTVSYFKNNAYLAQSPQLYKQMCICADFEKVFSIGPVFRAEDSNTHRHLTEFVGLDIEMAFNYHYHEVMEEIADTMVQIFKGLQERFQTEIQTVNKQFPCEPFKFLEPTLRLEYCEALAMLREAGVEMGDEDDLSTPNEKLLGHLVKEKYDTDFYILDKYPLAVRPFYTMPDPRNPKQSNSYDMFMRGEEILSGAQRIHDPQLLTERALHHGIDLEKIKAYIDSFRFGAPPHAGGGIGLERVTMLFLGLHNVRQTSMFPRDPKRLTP
UniProt P07384: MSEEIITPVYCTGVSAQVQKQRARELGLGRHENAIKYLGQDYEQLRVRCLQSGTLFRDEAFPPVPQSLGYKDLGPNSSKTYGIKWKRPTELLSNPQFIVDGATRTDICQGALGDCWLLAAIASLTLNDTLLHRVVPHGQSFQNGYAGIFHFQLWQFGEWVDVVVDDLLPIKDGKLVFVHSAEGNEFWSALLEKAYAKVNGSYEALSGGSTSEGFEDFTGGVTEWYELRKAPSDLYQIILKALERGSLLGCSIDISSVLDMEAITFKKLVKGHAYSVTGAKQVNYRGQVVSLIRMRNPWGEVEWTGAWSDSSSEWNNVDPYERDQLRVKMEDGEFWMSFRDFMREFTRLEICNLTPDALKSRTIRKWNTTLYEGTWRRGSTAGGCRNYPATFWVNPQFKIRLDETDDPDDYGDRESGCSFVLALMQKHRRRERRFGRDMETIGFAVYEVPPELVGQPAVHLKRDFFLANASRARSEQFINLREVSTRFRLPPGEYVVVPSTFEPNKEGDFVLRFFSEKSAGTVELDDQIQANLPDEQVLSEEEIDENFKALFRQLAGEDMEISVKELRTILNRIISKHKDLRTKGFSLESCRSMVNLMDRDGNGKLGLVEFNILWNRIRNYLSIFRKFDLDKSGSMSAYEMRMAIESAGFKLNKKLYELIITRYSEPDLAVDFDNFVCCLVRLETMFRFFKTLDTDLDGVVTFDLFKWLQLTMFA
UniProt P09110: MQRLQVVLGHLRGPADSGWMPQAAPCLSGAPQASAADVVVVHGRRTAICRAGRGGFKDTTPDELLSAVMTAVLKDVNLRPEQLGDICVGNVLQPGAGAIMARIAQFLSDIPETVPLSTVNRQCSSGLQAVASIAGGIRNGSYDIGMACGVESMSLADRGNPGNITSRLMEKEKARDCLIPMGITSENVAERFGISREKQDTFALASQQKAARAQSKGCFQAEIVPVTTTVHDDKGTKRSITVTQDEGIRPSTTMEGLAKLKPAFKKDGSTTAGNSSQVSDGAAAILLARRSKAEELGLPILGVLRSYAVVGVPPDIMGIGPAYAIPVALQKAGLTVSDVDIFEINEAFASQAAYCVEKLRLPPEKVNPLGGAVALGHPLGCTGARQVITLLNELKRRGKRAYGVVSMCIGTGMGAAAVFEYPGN
UniProt P07339: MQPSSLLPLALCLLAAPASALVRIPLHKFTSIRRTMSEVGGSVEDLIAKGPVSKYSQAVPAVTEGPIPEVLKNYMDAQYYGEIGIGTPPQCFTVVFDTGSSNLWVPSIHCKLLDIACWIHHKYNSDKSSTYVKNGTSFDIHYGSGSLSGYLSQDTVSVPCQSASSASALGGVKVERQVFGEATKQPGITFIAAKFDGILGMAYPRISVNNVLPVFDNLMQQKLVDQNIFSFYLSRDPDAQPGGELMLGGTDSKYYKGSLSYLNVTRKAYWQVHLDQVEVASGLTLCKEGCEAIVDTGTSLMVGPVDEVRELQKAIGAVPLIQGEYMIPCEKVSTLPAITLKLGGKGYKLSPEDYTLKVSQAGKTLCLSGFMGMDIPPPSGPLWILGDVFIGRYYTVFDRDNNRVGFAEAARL
UniProt P08567: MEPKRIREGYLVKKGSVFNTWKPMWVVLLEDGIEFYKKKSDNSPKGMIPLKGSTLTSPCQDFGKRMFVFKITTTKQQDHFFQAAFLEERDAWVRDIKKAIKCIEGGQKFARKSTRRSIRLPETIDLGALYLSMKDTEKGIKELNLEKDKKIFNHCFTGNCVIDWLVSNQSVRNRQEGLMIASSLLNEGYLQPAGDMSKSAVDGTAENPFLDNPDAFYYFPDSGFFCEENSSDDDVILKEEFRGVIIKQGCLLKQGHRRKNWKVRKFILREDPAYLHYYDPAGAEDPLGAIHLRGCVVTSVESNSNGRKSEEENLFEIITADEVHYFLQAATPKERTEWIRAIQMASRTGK

compound: Nc1ncnc2c1ncn2[C@@H]1O[C@H](COP(=O)(O)OP(=O)(O)OP(=O)(O)O)[C@@H](O)[C@H]1O [adenosine triphosphate]; assay: NP40-soluble protein abundance relative to vehicle (solubility fold change) (ratio); higher = more soluble protein in presence of ATP; conditions: concentration: 6mM
Summary of the method: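 Eight concentrations, 0.1 to 10 mM, were tested on Jurkat crude lysate for 10 min at room temperature and then 3 min at 37 °C, in three independent experiments. The lysate was solubilised with 0.8% NP40 and benzonase, ultracentrifuged, and the supernatant TMT-labelled for LC-MS/MS. Each value is the fold change against the detergent-processed vehicle in its own replicate, from vsn-normalised intensities.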

Target	NP40-soluble protein abundance
SRF (UniProt P11831)	1 ± 0.055
UniProt P16298 and related entries	0.984 ± 0.094
TOMM40 (UniProt O96008)	0.931 ± 0.074
PRKAR1A (UniProt P10644)	0.96 ± 0.056
RAP2A (UniProt P10114)	0.974 ± 0.25
UniProt P10636-6|P10636-7	0.961 ± 0.056
RPLP2 (UniProt P05387)	1 ± 0.2
ISG15 (UniProt P05161)	0.949 ± 0.079
CRYZL1 (UniProt O95825)	1.03 ± 0.097
UniProt P16083 and related entries	0.96 ± 0.043
ACYP1 (UniProt P07311)	0.923 ± 0.033
UniProt P14209 and related entries	1.05 ± 0.19
UniProt P14324-2	0.909 ± 0.12
TGFB1 (UniProt P01137)	0.922 ± 0.013
GTF2F2 (UniProt P13984)	1 ± 0.032
RPS2 (UniProt P15880)	0.752 ± 0.079
P0DN79 and related entries (UniProt P35520+P0DN79)	0.904 ± 0.086
LCP1 (UniProt P13796)	0.854 ± 0.15
UniProt P09564	1.06 ± 0.099
EPRS (UniProt P07814)	0.985 ± 0.16
CAT (UniProt P04040)	0.961 ± 0.022
UniProt P06748 and related entries	1.15 ± 0.06
DARS (UniProt P14868)	0.917 ± 0.057
CAPN1 (UniProt P07384)	0.955 ± 0.12
ACAA1 (UniProt P09110)	0.983 ± 0.01
UniProt P13807 and related entries	0.841 ± 0.073
CTSD (UniProt P07339)	0.94 ± 0.074
PLEK (UniProt P08567)	0.991 ± 0.12

A few values from above:
NP40-soluble protein abundance, UniProt P14209 and related entries is entered as 1.05 ± 0.19
NP40-soluble protein abundance, UniProt P09564 is entered as 1.06 ± 0.099
